Source: patent US20240117019A1
No constants are given. Whether binding was seen depends on the method and setting.

Assays:
[1] = target: PspA, serotype 2 (Streptococcus pneumoniae); experiment: flow cytometry on whole bacteria, serotype 2
[2] = target: PspA, serotype 9N (Streptococcus pneumoniae); experiment: ELISA on plates coated with fixed whole bacteria, serotype 9N, OD405
[3] = target: PspA, serotype 6D (Streptococcus pneumoniae); experiment: ELISA on plates coated with fixed whole bacteria, serotype 6D, OD405
[4] = target: PspA, serotype 12F (Streptococcus pneumoniae); experiment: flow cytometry on whole bacteria, serotype 12F
[5] = target: PspA, serotype 9N (Streptococcus pneumoniae); experiment: flow cytometry on whole bacteria, serotype 9N
[6] = target: PspA, serotype 11A (Streptococcus pneumoniae); experiment: flow cytometry on whole bacteria, serotype 11A
[7] = target: PspA, serotype 2 (Streptococcus pneumoniae); experiment: ELISA on plates coated with fixed whole bacteria, serotype 2, OD405
[8] = target: PspA, serotype 6C (Streptococcus pneumoniae); experiment: ELISA on plates coated with fixed whole bacteria, serotype 6C, OD405
[9] = target: PspA, serotype 12F (Streptococcus pneumoniae); experiment: ELISA on plates coated with fixed whole bacteria, serotype 12F, OD405
[10] = target: PspA, serotype 6C (Streptococcus pneumoniae); experiment: flow cytometry on whole bacteria, serotype 6c
[11] = target: PspA, serotype 11A (Streptococcus pneumoniae); experiment: ELISA on plates coated with fixed whole bacteria, serotype 11a, OD405
[12] = target: PspA, serotype 6D (Streptococcus pneumoniae); experiment: flow cytometry on whole bacteria, serotype 6d

B1: human monoclonal antibody PspA16 (antibody, V domains shown)
VH: QVQLVQSGPDVKKPGASVKVSCKTSGYTFTGYYMHWVRQAPGQGLEWMGWVNPNTGGTSYAQKFQGRVTVTRDTSISTVYMELSALGSDDTAIYFCARAWAPGAEYLHHWGQGTLVTVSS
VL: EIVMTQSPGTLSLSPGETATLSCRASQSVGSSYLAWYQQKPGQAPRLLIFGASNRATGIPVRFSASGSGTDFTLTISRLEPEDFAVYYCQQHDHSPFTFGPGTKVDLK
[1]
  binding: no binding (tested: 10 µg/ml (single concentration))
[2]
  binding: no binding (tested: log10 1.3 (about 20 µg/ml))
[3]
  binding: no binding (tested: log10 1.3 (about 20 µg/ml))
[4]
  binding: no binding (tested: 10 µg/ml (single concentration))
[5]
  binding: no binding (tested: 10 µg/ml (single concentration))
[6]
  binding: no binding (tested: 10 µg/ml (single concentration))
[7]
  binding: no binding (tested: log10 1.3 (about 20 µg/ml))
[8]
  binding: no binding (tested: log10 1.3 (about 20 µg/ml))
[9]
  binding: no binding (tested: log10 1.3 (about 20 µg/ml))
[10]
  binding: no binding (tested: 10 µg/ml (single concentration))
[11]
  binding: no binding (tested: log10 1.3 (about 20 µg/ml))
[12]
  binding: no binding (tested: 10 µg/ml (single concentration))
